Measurements as given in the supplement of paper PMC9549374.
Some of the results follow. Cut-off read from the data, not from the text of the source: active = 2-fold of DMSO or more and inactive = the rest. Single values of this set are uncertain. Some low values are a fixed figure set by the source, not a measured ratio.

The compounds below were run on CM7/1-hgem mouse ES cell-derived cardiomyocytes (assay: maximal number of mAG-hGem(1/110)-positive cardiomyocytes over 96 h, fold-change vs DMSO; higher = more cardiomyocyte cell cycle activity). Conditions: 1 µM; 96 (max over 12 h time points) h.

| Structure (SMILES) | maximal number |
| --- | --- |
| C[C@@H]1CC[C@@]2(OC1)O[C@H]1C[C@H]3[C@@H]4CC[C@H]5C[C@@H](O)CC[C@]5(C)[C@H]4CC[C@]3(C)[C@H]1[C@@H]2C | inactive: 1 |
| COc1ccc(-c2coc3cc(O)ccc3c2=O)c(O)c1O | inactive: 1 |
| C[C@]12CC[C@@H]3c4ccc(O)cc4C[C@@H](CCCCCCCCC[S+]([O-])CCCC(F)(F)C(F)(F)F)[C@H]3[C@@H]1CC[C@@H]2O (stereo partly drawn) | inactive: 1 |
| COc1cc(C/C=C/c2ccccc2)c(OC)cc1O | inactive: 1 |
| CC(=O)O[C@@H]1CC2C(C)(CC[C@H](O)C2(C)C)C2CC[C@]3(C)C(=CC(=O)O[C@H]3c3ccoc3)C21C (stereo partly drawn) [3beta-HYDROXYDEOXODIHYDRODEOXYGEDUNIN] | inactive: 1 |
| NC1=NCCN1CC(=O)O | inactive: 1 |
| C#CCCCCCCCCCCCC(O)CC(O)COC(C)=O (stereo not drawn) | inactive: 1 |
| O=C(O)c1cc(O)c(=O)c2c(O)c(O)ccc2c1 | inactive: 1 |
| CC(=O)N(CC(O)CN(C(C)=O)c1c(I)c(C(=O)NCC(O)CO)c(I)c(C(=O)NCC(O)CO)c1I)c1c(I)c(C(=O)NCC(O)CO)c(I)c(C(=O)NCC(O)CO)c1I (stereo not drawn) | inactive: 1 |
| Oc1cc2c(cc1O)C1c3ccc(O)c(O)c3OCC1(O)C2 (stereo not drawn) | inactive: 1 |
| CC[n+]1c(-c2ccccc2)c2cc(N)ccc2c2ccc(N)cc21 | inactive: 1 |
| O=C(Nc1ccccc1)Nc1ccccc1 | inactive: 1 |
| COc1cc(-c2coc3cc(O[C@@H]4O[C@H](CO)[C@@H](O)[C@H](O)[C@H]4O)c(OC)c(O)c3c2=O)cc(O)c1OC | inactive: 0 |
| CCCCCN(C)CCC(O)(P(=O)(O)O)P(=O)(O)O | inactive: 1 |
| CC1(C)CC[C@]2(C(=O)O)CC[C@]3(C)C(=CCC4[C@@]5(C)CC[C@@H](O)C(C)(C)C5CC[C@]43C)C2C1 (stereo partly drawn) | inactive: 1 |
| CO[C@H]1C[C@H](O[C@@H]2/C(C)=C/C[C@@H]3C[C@@H](C[C@]4(CC[C@H](C)[C@@H](C5CCCCC5)O4)O3)OC(=O)[C@@H]3C=C(C)/C(=N/O)[C@H]4OC/C(=C\C=C\[C@@H]2C)[C@]43O)O[C@@H](C)[C@@H]1O | inactive: 1 |
| CC(CCc1ccc(O)cc1)NCC(O)c1ccc(O)cc1 (stereo not drawn) | inactive: 1 |
| CC(=O)O[C@@H]1C[C@H]2C(C)(C)C(=O)CC[C@]2(C)[C@H]2CC[C@@]3(C)[C@H](c4ccoc4)OC(=O)[C@H]4O[C@]43[C@@]21C | inactive: 1 |
| CNNCc1ccc(C(=O)NC(C)C)cc1 | inactive: 1 |

Some of these compounds in order of molar mass, falling:

| Structure (SMILES) | maximal number |
| --- | --- |
| COc1cc(-c2coc3cc(O[C@@H]4O[C@H](CO)[C@@H](O)[C@H](O)[C@H]4O)c(OC)c(O)c3c2=O)cc(O)c1OC | inactive: 0 |
| COc1cc(C/C=C/c2ccccc2)c(OC)cc1O | inactive: 1 |
| O=C(O)c1cc(O)c(=O)c2c(O)c(O)ccc2c1 | inactive: 1 |

Further structures.

| Structure (SMILES) | maximal number |
| --- | --- |
| CC(=O)O[C@H]1C[C@@H](O)C(C)(C)[C@@H]2C[C@@H](OC(C)=O)[C@]3(C)[C@H](CC[C@@]4(C)[C@@H](c5ccoc5)OC(=O)[C@H]5O[C@@]534)[C@@]12C | inactive: 1 |
| CC12CCC3C(CC3(C)C)C(C)(CCC1=O)O2 (stereo not drawn) | inactive: 0 |
| O=c1cc(-c2ccccc2)oc2ccc(O)cc12 | inactive: 1 |
| COc1c2ccoc2c(OC)c2oc(=O)ccc12 | inactive: 1 |
| N=C(N)c1ccc(N=NNc2ccc(C(=N)N)cc2)cc1 | inactive: 1 |
| CCOc1ccc(Cc2nccc3cc(OCC)c(OCC)cc23)cc1OCC | inactive: 1 |
| CCCCCCCCCCCCCCCCOP(=O)([O-])OCC[N+](C)(C)C | inactive: 1 |
| CC(=O)O[C@@H]1C[C@H]2C(C)(C)C(=O)C=C[C@]2(C)[C@H]2CC[C@@]3(C)[C@H](c4ccoc4)OC(=O)[C@H]4O[C@]43[C@@]21C | inactive: 1 |
| O=C(O)c1cc(=O)c(O)c2c(O)c(O)c(O)cc2c1 | inactive: 1 |
| Nc1ccccc1C(=O)CC(N)C(=O)O (stereo not drawn) | inactive: 1 |
| CC(=O)O[C@H]1CC[C@]2(C)[C@H]3CC=C4[C@@H]5CC(C)(C)CC[C@]5(C(=O)O)CC[C@@]4(C)[C@]3(C)CC[C@H]2C1(C)C | inactive: 0 |
| O=c1cc(-c2ccccc2)oc2cc(O)ccc12 | inactive: 1 |
| CC(C)=CCOc1cc2oc(=O)ccc2cc1O | inactive: 1 |
| CC(=O)Nc1cccc(O)c1 | inactive: 1 |
| O=C(CCCN1CC=C(n2c(=O)[nH]c3ccccc32)CC1)c1ccc(F)cc1 | inactive: 1 |
| COc1c(O)cc2oc3cc(O)c(CC=C(C)C)c(O)c3c(=O)c2c1CC=C(C)C [alpha-MANGOSTIN] | inactive: 1 |
| Nc1nc2c(ncn2COCCO)c(=O)[nH]1 | inactive: 1 |
| CC(=O)O[C@@H]1CC2C(C)(C)[C@H](O)CC[C@]2(C)C2CC[C@@]3(C)[C@H](c4ccoc4)OC(=O)C4OC43[C@@]21C (stereo partly drawn) [alpha-DIHYDROGEDUNOL] | inactive: 1 |
| O=C(/C=C/c1ccccc1)c1ccc(O)cc1 | inactive: 1 |
